The test deals with N-terminal domain of KaiA (residues 1-135) (Synechococcus elongatus) (UniProt Q79PF6). Briefly: SEC; Superdex 75 1660 prep grade column, step of the purification after Ni-NTA; both purified. For orientation: SEC sorts molecules by how far they enter the pores of the column.

No constants are given. Whether binding was seen depends on the method and setting.

B1: N-terminal domain of KaiA (residues 1-135) (domain or fragment, UniProt Q79PF6 1-135)
chain: MLSQIAICIWVESTAILQDCQRALSADRYQLQVCESGEMLLEYAQTHRDQIDCLILVAANPSFRAVVQQLCFEGVVVPAIVVGDRDSEDPDEPAKEQLYHSAELHLGIHQLEQLPYQVDAALAEFLRLAPVETMA
On to B1, for which the binding entry was “no binding”.
